In experiment [1] the target is T1, recombinant full-length HcpA (residues 18 to 175) of B. recurrentis A1 (B. recurrentis A1) (UniProt C1L349).
T1 sequence: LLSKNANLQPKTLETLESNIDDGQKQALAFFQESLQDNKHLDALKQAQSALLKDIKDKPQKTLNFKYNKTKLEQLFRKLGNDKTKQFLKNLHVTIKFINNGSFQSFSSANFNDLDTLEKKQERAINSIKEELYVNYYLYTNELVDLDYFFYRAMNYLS
In words: SPR; Biacore 3000; recombinant HcpA immobilized on the sensor chip, CFH or deletion mutants in the fluid phase; both purified.

Sequences of proteins named here, by UniProt entry; tags and fusion partners are left off. Residues count along the entry.
UniProt P08603, residues 19-1231: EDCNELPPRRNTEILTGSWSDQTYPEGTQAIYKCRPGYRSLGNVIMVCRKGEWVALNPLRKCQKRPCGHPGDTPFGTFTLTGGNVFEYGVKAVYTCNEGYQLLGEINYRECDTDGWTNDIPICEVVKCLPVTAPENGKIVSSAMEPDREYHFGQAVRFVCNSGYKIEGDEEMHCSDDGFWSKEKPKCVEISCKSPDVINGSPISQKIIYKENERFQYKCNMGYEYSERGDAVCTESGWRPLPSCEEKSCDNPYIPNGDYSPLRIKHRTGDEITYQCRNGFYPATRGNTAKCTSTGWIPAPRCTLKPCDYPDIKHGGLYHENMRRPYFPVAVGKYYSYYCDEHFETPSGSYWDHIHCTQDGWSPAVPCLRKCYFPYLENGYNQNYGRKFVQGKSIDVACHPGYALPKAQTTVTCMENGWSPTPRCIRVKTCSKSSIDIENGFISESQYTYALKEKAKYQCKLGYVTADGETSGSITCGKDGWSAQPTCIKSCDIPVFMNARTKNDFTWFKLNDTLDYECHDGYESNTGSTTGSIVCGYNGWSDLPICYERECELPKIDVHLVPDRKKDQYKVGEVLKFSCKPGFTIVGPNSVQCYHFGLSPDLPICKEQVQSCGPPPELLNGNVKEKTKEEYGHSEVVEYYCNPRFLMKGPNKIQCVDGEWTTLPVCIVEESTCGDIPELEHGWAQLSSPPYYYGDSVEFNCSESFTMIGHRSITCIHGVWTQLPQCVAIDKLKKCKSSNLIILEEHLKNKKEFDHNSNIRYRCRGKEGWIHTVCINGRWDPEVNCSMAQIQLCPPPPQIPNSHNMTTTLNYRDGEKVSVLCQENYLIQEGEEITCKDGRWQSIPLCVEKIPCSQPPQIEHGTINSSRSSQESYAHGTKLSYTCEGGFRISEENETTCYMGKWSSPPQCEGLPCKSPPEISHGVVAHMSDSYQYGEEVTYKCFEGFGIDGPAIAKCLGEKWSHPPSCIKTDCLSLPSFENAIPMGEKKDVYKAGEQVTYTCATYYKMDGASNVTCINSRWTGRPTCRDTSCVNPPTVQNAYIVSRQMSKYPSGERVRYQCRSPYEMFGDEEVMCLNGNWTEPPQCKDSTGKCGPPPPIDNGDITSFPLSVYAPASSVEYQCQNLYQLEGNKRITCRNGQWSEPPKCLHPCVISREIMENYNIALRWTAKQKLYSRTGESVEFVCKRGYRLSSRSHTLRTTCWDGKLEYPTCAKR

Experiment [2] has as its target T1, recombinant full-length HcpA (residues 18 to 175) of B. recurrentis A1 (B. recurrentis A1). Put plainly: far-Western, overlay or dot blot; ligand affinity blot: purified recombinant HcpA separated by SDS-PAGE, on nitrocellulose strips, incubated with recombinant CFHL-1, CFH deletion constructs or recombinant CFHR-1; anti-CFH immune serum, mAb JHD7 or JHD8; both purified.

For experiment [3], the target named is HcpA expressed in transformed B. burgdorferi B313/pBR (B. recurrentis A1) (UniProt C1L349). In words: far-Western, overlay or dot blot; ligand affinity blot: borrelial whole cell lysates (15 µg) separated by Tris/Tricine SDS-PAGE under reducing conditions, on nitrocellulose, incubated with normal human serum; CFH detected with mAb JHD7, CFHR-1 with mAb JHD8.
The target of experiment [4] is T1, recombinant full-length HcpA (residues 18 to 175) of B. recurrentis A1 (B. recurrentis A1). Put plainly: ELISA; microtiter plates coated with non-denatured HcpA or deletion mutants (1 µg/ml), incubated with CFH (10 µg/ml) or PLG (20 µg/ml) for 1 h at RT; goat anti-CFH or goat anti-PLG; both purified.
Experiment [5] has the same target. Put plainly: ELISA; competition inhibition assay: HcpA (2 µg/ml) coated; constant CFH (3 µg/ml in the methods, 2 µg/ml in the results) with PLG 0.001-100 µg/ml, or constant PLG (10 µg/ml) with CFH 0.001-100 µg/ml; both purified. (In an ELISA, binding on a coated surface is turned into a signal by an enzyme label.)

No constants are given. Whether binding was seen depends on the method and setting. Binding can be weak; no strength is given.

As to “CFH deletion construct SCR15-20 (human) (domain or fragment)”, the binding result in experiment [1] and in experiment [2] was “binds” throughout.

“CFH deletion construct SCR15-19 (human) (domain or fragment)”: the binding result in experiment [1] was “no binding”.

In the case of “CFH deletion construct SCR8-20 (human) (domain or fragment)”, the binding entry in experiment [1] and in experiment [2] was “binds” each time.

For “human complement factor H (from UniProt P08603 19-1231)”, the binding entry in experiment [3] is on record as “binds”.

“recombinant CFHL-1 (CFH SCR1-7) (human) (domain or fragment)”: in experiment [2], the binding result was “no binding”.

For the substance “CFH deletion mutant SCR19-20 (human) (domain or fragment)”, the binding result in experiment [1] and in experiment [2] was “binds” each time.

human plasminogen: the binding entry in experiment [4] and in experiment [5] was “binds” in each case.

These data come from publication PMC2654920, “Borrelia recurrentis Employs a Novel Multifunctional Surface Protein with Anti-Complement, Anti-Opsonic and Invasive Potential to Escape Innate Immunity” (PLoS ONE, 2009).
